Data as given in article PMC5589656, “Disruption of DNA repair in cancer cells by ubiquitination of a destabilising dimerization domain of nucleotide excision repair protein ERCC1” (Oncotarget, 2017).
No constants are given. Whether binding was seen depends on the method and setting. For part of these data: In cells and extracts the contact can be indirect. Some entries that bind do so weakly or less than the wild type. For part of these data: Where a sequence is shown, tags or fusion partners need not be part of it.

T1: ERCC1 (1-297), full-length wild-type human ERCC1, Myc-tagged and Flag-tagged copies (human) (UniProt P07992)
T1 sequence: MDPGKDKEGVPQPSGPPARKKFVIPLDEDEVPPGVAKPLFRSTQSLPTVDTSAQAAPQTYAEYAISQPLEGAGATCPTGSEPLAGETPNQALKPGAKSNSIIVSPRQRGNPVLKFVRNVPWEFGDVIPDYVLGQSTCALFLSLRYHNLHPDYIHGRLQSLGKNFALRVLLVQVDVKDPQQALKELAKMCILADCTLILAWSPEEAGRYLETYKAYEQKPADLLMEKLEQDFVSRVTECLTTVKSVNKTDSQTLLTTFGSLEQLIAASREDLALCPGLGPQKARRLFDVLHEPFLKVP

B1: ERCC1 (1-297), full-length wild-type human ERCC1, Myc-tagged and Flag-tagged copies (natural protein, UniProt P07992 1-297, looked up)
chain: T1 sequence
notes: ERCC1, human, full length, residues 1-297 (297 amino acid protein); Self-association was tested with two differently tagged copies; Each copy carries only one of the two tags: the Myc-tagged copy was precipitated and the Flag-tagged copy was detected; The Myc copy is in pcDNA3.1(-)/myc-His A, which as far as I recall adds a C-terminal myc-His; Construct details are in the Supplementary …
B2: Flag-tagged ERCC1 (1-219) truncation (domain or fragment, UniProt P07992 1-219)
chain: MDPGKDKEGVPQPSGPPARKKFVIPLDEDEVPPGVAKPLFRSTQSLPTVDTSAQAAPQTYAEYAISQPLEGAGATCPTGSEPLAGETPNQALKPGAKSNSIIVSPRQRGNPVLKFVRNVPWEFGDVIPDYVLGQSTCALFLSLRYHNLHPDYIHGRLQSLGKNFALRVLLVQVDVKDPQQALKELAKMCILADCTLILAWSPEEAGRYLETYKAYEQKP
B3: endogenous ERCC1 (protein, UniProt P07992 1-297)
chain: T1 sequence

Legend:
[1] = target: T1, ERCC1 (1-297), full-length wild-type human ERCC1, Myc-tagged and Flag-tagged copies (human); experiment: co-IP; A375 cells co-transfected with Myc-tagged and Flag-tagged ERCC1 constructs; 24 h later immunoprecipitation with anti-Myc antibody linked to magnetic beads; denaturing western blot with anti-Flag antibody; one co-transfected dish also treated with 25 uM cisplatin for 5 h
[2] = target: endogenous ERCC1 (human (endogenous in A375)) (UniProt P07992); experiment: SEC + other: semi-native western blot; size exclusion chromatography of native lysates from non-transfected control and cisplatin-treated A375 cells; fractions run on denaturing and semi-native western blots for ERCC1 and XPF

| Binder | binding [1] | binding [2] |
| --- | --- | --- |
| B1 | binds |  |
| B2 | binds |  |
| B3 |  | binds |
